{"sequences": {"note": "By UniProt entry, the sequences of proteins in these tests, tags left out.", "UniProt Q03164, whole entry, looked up": "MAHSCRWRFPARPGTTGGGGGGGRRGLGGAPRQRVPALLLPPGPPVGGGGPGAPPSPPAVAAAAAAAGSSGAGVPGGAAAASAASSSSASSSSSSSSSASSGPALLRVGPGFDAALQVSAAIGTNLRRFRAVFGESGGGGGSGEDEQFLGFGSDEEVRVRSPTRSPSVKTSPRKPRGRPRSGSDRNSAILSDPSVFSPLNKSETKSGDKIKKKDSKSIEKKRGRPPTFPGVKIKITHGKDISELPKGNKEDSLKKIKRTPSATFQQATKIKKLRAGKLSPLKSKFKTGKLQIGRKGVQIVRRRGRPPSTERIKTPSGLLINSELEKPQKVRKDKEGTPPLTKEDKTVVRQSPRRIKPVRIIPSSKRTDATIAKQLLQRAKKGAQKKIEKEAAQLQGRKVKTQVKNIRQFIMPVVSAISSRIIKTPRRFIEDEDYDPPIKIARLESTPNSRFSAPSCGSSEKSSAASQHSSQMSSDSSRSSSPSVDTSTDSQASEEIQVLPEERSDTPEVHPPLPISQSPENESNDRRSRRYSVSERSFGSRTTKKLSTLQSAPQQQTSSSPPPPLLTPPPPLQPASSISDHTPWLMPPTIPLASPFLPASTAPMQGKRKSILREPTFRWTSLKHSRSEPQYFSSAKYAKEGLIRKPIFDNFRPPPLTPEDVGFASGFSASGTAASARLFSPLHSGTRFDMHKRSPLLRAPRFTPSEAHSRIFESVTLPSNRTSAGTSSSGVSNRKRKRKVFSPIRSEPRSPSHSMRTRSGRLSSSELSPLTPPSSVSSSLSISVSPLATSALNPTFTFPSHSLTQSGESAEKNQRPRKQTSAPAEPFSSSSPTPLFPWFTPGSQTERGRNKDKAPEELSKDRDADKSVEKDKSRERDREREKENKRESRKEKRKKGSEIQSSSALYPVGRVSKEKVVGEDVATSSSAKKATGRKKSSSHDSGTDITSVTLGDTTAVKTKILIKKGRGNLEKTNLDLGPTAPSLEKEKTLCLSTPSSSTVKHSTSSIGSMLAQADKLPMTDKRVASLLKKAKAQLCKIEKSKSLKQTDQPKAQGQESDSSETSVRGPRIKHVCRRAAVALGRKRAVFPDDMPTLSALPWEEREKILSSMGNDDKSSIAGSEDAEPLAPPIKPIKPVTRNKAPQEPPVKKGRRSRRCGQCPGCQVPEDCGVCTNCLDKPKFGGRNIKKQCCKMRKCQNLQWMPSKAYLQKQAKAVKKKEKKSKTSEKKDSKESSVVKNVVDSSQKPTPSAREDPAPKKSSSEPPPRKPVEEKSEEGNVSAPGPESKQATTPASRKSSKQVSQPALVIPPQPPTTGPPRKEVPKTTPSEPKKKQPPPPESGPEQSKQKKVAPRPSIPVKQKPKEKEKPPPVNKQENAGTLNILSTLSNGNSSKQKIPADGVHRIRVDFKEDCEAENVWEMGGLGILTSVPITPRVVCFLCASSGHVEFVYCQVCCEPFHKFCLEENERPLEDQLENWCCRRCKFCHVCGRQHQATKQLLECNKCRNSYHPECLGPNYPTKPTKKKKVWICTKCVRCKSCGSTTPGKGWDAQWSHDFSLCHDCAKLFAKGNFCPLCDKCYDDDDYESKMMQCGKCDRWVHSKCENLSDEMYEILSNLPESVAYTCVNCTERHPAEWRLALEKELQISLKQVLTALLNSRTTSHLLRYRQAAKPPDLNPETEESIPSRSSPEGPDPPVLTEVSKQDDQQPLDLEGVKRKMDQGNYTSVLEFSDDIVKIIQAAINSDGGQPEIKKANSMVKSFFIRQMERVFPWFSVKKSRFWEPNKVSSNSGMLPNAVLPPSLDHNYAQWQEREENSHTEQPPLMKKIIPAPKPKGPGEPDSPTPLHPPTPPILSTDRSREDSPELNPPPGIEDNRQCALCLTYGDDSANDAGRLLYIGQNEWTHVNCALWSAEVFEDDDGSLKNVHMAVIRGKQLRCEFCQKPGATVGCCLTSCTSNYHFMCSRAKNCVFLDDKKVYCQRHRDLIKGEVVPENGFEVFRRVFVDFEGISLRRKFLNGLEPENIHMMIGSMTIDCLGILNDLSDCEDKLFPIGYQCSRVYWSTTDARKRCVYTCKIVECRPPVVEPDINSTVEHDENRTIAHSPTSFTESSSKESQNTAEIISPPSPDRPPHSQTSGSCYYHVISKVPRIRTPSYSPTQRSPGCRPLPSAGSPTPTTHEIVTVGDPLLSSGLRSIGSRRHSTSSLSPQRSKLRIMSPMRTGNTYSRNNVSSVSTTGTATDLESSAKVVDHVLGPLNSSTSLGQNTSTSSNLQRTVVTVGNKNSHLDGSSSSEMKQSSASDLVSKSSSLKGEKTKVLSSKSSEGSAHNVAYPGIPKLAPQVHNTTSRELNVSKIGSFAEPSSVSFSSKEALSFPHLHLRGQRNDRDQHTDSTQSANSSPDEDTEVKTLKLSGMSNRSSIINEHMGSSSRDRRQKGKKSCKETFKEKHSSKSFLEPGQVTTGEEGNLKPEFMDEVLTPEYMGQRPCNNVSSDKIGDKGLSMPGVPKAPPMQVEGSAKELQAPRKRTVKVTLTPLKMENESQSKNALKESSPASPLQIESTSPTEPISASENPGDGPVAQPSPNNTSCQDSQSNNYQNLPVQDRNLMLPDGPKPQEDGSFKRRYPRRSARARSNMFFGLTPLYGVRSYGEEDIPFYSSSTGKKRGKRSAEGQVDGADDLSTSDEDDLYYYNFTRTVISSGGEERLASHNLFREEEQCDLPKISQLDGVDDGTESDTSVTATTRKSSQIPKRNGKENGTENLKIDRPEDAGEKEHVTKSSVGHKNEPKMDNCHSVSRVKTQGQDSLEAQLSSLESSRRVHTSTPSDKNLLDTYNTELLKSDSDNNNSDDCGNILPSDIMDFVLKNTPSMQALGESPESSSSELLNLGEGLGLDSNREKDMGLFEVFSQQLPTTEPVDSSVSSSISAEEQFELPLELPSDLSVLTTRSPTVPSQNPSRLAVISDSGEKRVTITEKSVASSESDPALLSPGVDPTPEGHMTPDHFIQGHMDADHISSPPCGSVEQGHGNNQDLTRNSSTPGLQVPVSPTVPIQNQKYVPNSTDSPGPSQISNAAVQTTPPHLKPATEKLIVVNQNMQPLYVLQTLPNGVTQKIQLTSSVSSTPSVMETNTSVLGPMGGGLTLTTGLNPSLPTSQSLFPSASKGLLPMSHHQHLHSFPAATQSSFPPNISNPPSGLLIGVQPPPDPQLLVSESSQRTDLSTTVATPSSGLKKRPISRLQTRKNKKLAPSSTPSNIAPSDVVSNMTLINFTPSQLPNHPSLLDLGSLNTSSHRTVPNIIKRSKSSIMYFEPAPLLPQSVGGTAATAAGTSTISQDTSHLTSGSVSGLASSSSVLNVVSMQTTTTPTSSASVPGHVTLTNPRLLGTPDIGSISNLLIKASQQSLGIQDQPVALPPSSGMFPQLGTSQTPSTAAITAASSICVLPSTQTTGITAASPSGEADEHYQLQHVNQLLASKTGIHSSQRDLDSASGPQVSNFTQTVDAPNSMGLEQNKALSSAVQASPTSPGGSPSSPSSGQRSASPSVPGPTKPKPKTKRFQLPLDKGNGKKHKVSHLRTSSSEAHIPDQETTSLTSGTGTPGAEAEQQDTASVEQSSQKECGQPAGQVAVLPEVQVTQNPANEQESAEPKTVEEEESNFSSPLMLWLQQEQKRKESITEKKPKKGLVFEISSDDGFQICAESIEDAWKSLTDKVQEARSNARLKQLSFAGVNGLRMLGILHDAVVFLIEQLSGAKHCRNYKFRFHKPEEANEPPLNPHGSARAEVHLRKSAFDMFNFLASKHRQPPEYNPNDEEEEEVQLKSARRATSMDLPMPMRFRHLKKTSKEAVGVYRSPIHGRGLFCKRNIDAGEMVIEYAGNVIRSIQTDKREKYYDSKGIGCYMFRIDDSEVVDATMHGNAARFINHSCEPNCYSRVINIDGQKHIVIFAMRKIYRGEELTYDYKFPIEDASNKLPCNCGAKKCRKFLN"}, "source": "PubChem BioAssay AID2662", "about": "(National Center for Advancing Translational Sciences (NCATS), 2010)", "note": "Out of some 290,000 compounds screened, about 110 (0.038%) were called active. The inconclusive results got no clear call from the source; some entries with a clear call stand among them for comparison. Calls follow the shape of the dose curve; as a rule, active = well fitted inhibition curve with a large enough effect in the polarisation, with a control signal flat (not every such curve was filed as active); inconclusive = small, poorly fitted or top-dose-only effect, or effect the other way, or a change in a side signal; inactive = no such curve, though single readings can be large or run the other way; the % refers to the polarisation. Potencies of inconclusive entries are doubtful fits and often do not repeat. A note “side channel” means that the fit belongs to a control or component signal, not to the main read-out. Potency is read from the fitted curve at half-maximal effect.", "data": [{"target": "Histone-lysine N-methyltransferase 2A (Homo sapiens) (UniProt Q03164)", "test": "qHTS Fluorescence Polarization Assay for Inhibitors of MLL CXXC domain - DNA interaction", "conditions": "MLL-CXXC / FITC-HOXA9 DNA fluorescence polarization; series mostly up to 115 µM", "in_short": "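Steps: dispense CXXC domain solution (7 uM) → pin compounds or unlabeled HOX-A9 DNA control → 5 min ambient → add FLSN-HOX-A9 solution (50 nM) → spin → 30 min ambient → fluorescence polarization. Tris pH 7.5/NaCl/DTT/BSA buffer.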", "values": [{"smiles": "COc1cc2c(cc1OC)CN(C(=O)C1CCCN1S(=O)(=O)c1ccc(F)cc1)CC2", "note": "(centres undefined)", "Potency": "inconclusive: 63.1 µM [fluorescent, side channel, single point]"}, {"smiles": "O=C1OC(c2cccs2)=N/C1=C\\c1ccc(-c2ccccc2Cl)o1", "Potency": "inconclusive: 44.7 µM [fluorescent, side channel, partial curve]"}, {"smiles": "O=C1NC(=O)C(Cc2cccc(Oc3ccccc3)c2)S1", "note": "(centres undefined)", "Potency": "inconclusive: 14.1 µM [fluorescent, side channel, single point]"}, {"smiles": "Cc1ccc2[nH]c3c(N4CCN(Cc5ccccc5)CC4)ncnc3c2c1", "Potency": "inconclusive: 31.6 µM [quencher, side channel, single point]"}, {"smiles": "O=c1cc(CSc2ccccc2)nc(-c2ccccc2)[nH]1", "Potency": "inconclusive: 2 µM [fluorescent, side channel, full curve]"}, {"smiles": "CC(NC(=O)/C(=C/c1ccc(OC(F)F)cc1)c1ccccc1)c1ccccc1", "note": "(centres undefined)", "Potency": "inconclusive: 39.8 µM [quencher, side channel, partial curve]"}, {"smiles": "O=C(CSc1nc2ccccc2c(=O)n1-c1ccccc1)N1CCc2ccccc2C1", "Potency": "inconclusive: 15.8 µM [fluorescent, side channel, partial curve]"}, {"smiles": "Cc1cc(C)c2sc(NC(=O)C3=COCCO3)nc2c1", "Potency": "inconclusive: 14.1 µM [fluorescent, side channel, single point]"}, {"smiles": "O=S(=O)(Cc1ncc(C(F)(F)F)cc1Cl)c1ccccc1", "Potency": "inconclusive: 11.2 µM [quencher, side channel, single point]"}, {"smiles": "O=C(Nc1nccs1)c1cnccn1", "Potency": "inactive"}, {"smiles": "Cc1cc(NS(=O)(=O)c2ccccc2)cc(Cl)c1O", "Potency": "inactive"}, {"smiles": "COc1cccc2c(=S)c(CCC(C)=O)c(C)[nH]c12", "Potency": "inactive"}, {"smiles": "O=C1[C@@H]2Cc3c([nH]c4ccccc34)C(c3ccc([N+](=O)[O-])cc3)N2C(=O)CN1C1CC1", "note": "(some centres undefined)", "Potency": "inconclusive: 14.1 µM [fluorescent, side channel, single point]"}, {"smiles": "CCOc1cc(C(=O)Nc2cccc(C(C)=O)c2)ccc1OCC(=O)N1CCCCC1", "Potency": "inconclusive: 14.1 µM [quencher, side channel, partial curve]"}, {"smiles": "O=C(O)c1ccc(/C=N/O)cc1", "Potency": "inconclusive: 1 µM [inhibitor, full curve, poor fit]"}, {"smiles": "COc1ccc(/C=C/C(=O)Nc2ccccc2C(=O)O)cc1OC", "Potency": "inconclusive: 22.4 µM [inhibitor, partial curve, poor fit]"}, {"smiles": "CC(C)CNS(=O)(=O)c1cc2c3c(c1)CC(=O)N3CCC2", "Potency": "inconclusive: 15.8 µM [fluorescent, side channel, single point]"}, {"smiles": "C/C(=N\\Nc1ccc(C#N)cc1[N+](=O)[O-])c1ccc(O)cc1", "Potency": "inconclusive: 35.5 µM [quencher, side channel, single point]"}, {"smiles": "COc1cc(/C=C2\\SC(=S)N(NC(=O)c3ccccc3O)C2=O)ccc1O", "Potency": "inconclusive: 8.91 µM [fluorescent, side channel, partial curve]"}, {"smiles": "CCOc1ccc(CCNC(=O)COC(=O)C2CCN(S(=O)(=O)c3ccc(C)c(C)c3)CC2)cc1OCC", "Potency": "inconclusive: 35.5 µM [fluorescent, side channel, partial curve]"}, {"smiles": "CCCn1c(NC(=O)c2cccc(C)c2C)nc2ccccc21", "Potency": "inconclusive: 6.31 µM [inhibitor, full curve, poor fit]"}, {"smiles": "O=C(O)c1nc(-c2ccccc2)n(-c2cccc(C(F)(F)F)c2)n1", "Potency": "inconclusive: 10 µM [fluorescent, side channel, partial curve]"}, {"smiles": "CCNc1nc(NCC)n2c(SCC(=O)Nc3ccc(C(F)(F)F)cc3[N+](=O)[O-])nnc2n1", "Potency": "inconclusive: 7.08 µM [fluorescent, side channel, full curve]"}, {"smiles": "COc1ccccc1NS(=O)(=O)c1ccc(O)c(NC(=S)NCC2CCCO2)c1", "note": "(centres undefined)", "Potency": "inactive"}, {"smiles": "Cc1cc(NC(=O)CSc2nnc(C3CC3)n2-c2ccccc2)no1", "Potency": "inconclusive: 35.5 µM [inhibitor, partial curve]"}, {"smiles": "O=C(CSc1nnc(CCCN2C(=O)c3cccc4cccc(c34)C2=O)n1-c1ccccc1)NCCCO", "Potency": "inconclusive: 56.2 µM [inhibitor, single point]"}, {"smiles": "Cc1c(N=Cc2ccncc2)c(=O)n(-c2ccccc2)n1C", "Potency": "inactive"}, {"smiles": "CC(=N[C@@H]1CCCC[C@H]1N=C(C)c1ccccc1O)c1ccccc1O", "Potency": "inconclusive: 7.94 µM [fluorescent, side channel, single point]"}, {"smiles": "CCCCCOC(=O)C1=C(C)Nc2nnnn2C1c1ccccc1Cl", "note": "(centres undefined)", "Potency": "inconclusive: 50.1 µM [inhibitor, single point]"}, {"smiles": "COc1cc(OC)c2c(O)c3c(c(-c4c5c(c(O)c6c(OC)cc(OC)cc46)CO[C@@H](C)[C@H]5O)c2c1)[C@H](O)[C@H](C)OC3", "Potency": "inconclusive: 50.1 µM [fluorescent, side channel, single point]"}, {"smiles": "O=C(CN1CCN(Cc2ccccc2)CC1)NCCc1ccccc1", "Potency": "inactive"}, {"smiles": "CC(NC(=O)Nc1ccc(F)cc1)c1ccc2c(c1)OCO2", "note": "(centres undefined)", "Potency": "inconclusive: 70.8 µM [quencher, side channel, single point]"}, {"smiles": "Cc1ccc(C2C(C#N)=C(N)SC(N)=C2C#N)cc1", "Potency": "inconclusive: 39.8 µM [fluorescent, side channel, partial curve]"}, {"smiles": "CSc1nnc(N2C(=O)C(O)=C(C(=O)c3ccco3)C2c2ccccc2)s1", "note": "(centres undefined)", "Potency": "inconclusive: 15.8 µM [fluorescent, side channel, single point]"}, {"smiles": "O=C(NCC(c1cccs1)N1CCOCC1)c1ccc(Cl)c([N+](=O)[O-])c1", "note": "(centres undefined)", "Potency": "inconclusive: 39.8 µM [inhibitor, single point]"}, {"smiles": "CC(=O)N1CC(=O)N=C1SCC(=O)Nc1nc(C)c(-c2ccccc2)s1", "Potency": "inactive"}, {"smiles": "CCOc1ccc(-c2nc(N)nc(C)c2-c2ccc(Cl)cc2)c(O)c1", "Potency": "inconclusive: 14.1 µM [fluorescent, side channel, single point]"}, {"smiles": "Cc1oc2c(c1C(=O)O)C(=O)c1ccccc1C2=O", "Potency": "inconclusive: 44.7 µM [fluorescent, side channel, single point]"}, {"smiles": "Cc1cccc(CN2C(=O)N/C(=C/c3ccc(C)s3)C2=O)c1", "Potency": "inconclusive: 35.5 µM [fluorescent, side channel, single point]"}, {"smiles": "CCOC(=O)C1=C(C)N=c2s/c(=C/c3ccc(OCC(=O)O)cc3)c(=O)n2C1c1ccc(SC)cc1", "note": "(centres undefined)", "Potency": "inconclusive: 44.7 µM [fluorescent, side channel, partial curve]"}, {"smiles": "COc1cc(/C=C2\\C(=N)N3N=C(S(C)(=O)=O)SC3=NC2=O)ccc1OS(=O)(=O)c1ccc(C)cc1", "Potency": "inconclusive: 7.94 µM [inhibitor, full curve]"}, {"smiles": "C#CCn1c(=NC(=O)c2cc(Cl)sc2Cl)sc2cc(S(N)(=O)=O)ccc21", "Potency": "inactive"}, {"smiles": "COc1cc(/C=C(\\C#N)c2nc3ccccc3o2)ccc1O", "Potency": "inconclusive: 7.94 µM [fluorescent, side channel, full curve]"}, {"smiles": "Cc1ccc2nc(-c3ccccc3)cn2c1", "Potency": "inconclusive: 7.94 µM [inhibitor, single point]"}, {"smiles": "Cc1ccc(C)c(S(=O)(=O)N2CCNCC2)c1", "Potency": "inactive"}, {"smiles": "Cc1ccc2nc(C)cc(Nc3ccc([N+](=O)[O-])cc3)c2c1", "Potency": "inconclusive: 22.4 µM [quencher, side channel, partial curve]"}, {"smiles": "CCCN(Cc1cc2cc(OC)ccc2[nH]c1=O)C(=O)c1ccncc1", "Potency": "inactive"}, {"smiles": "Cc1coc2c(C)c3oc(=O)c(CCC(=O)N(C)CC(=O)O)c(C)c3cc12", "Potency": "inconclusive: 15.8 µM [fluorescent, side channel, single point]"}, {"smiles": "COc1ccc(/C=C2/C(=O)ON=C2c2ccccc2)cc1OC", "Potency": "inconclusive: 35.5 µM [inhibitor, partial curve]"}, {"smiles": "Cc1ccc(C(=O)O)cc1N1C(=O)c2cccc3c([N+](=O)[O-])ccc(c23)C1=O", "Potency": "inconclusive: 39.8 µM [inhibitor, partial curve]"}, {"smiles": "COc1cc2c(cc1NC(=O)COC(=O)/C=C/c1ccccc1)oc1ccccc12", "Potency": "inconclusive: 70.8 µM [inhibitor, single point]"}, {"smiles": "Cc1ccc(S(=O)(=O)C(C#N)c2nc3ccccc3nc2N2CCCC2)cc1", "note": "(centres undefined)", "Potency": "inconclusive: 35.5 µM [fluorescent, side channel, partial curve]"}, {"smiles": "CCOc1ccc(CN2CCN(Cc3c[nH]c4ccccc34)CC2)cc1", "Potency": "inconclusive: 44.7 µM [fluorescent, side channel, single point]"}, {"smiles": "O=c1c(=Nc2ccccc2O)c(=O)c2ccccc12", "Potency": "inactive"}, {"smiles": "COc1cc(C)c2c(c1C=O)Oc1c(c(C)c(O)c3c1C(O)OC3=O)OC2=O", "note": "(centres undefined)", "Potency": "inconclusive: 89.1 µM [inhibitor, single point]"}, {"smiles": "CCN1/C(=C2/SC(=S)N(NC(C)=O)C2=O)Sc2ccccc21", "Potency": "inconclusive: 35.5 µM [fluorescent, side channel, single point]"}, {"smiles": "Cc1ccc2c(c1)sc(C)[n+]2CCCS(=O)(=O)[O-]", "Potency": "inactive"}, {"smiles": "CNc1ccc(Br)cc(C(=O)/C=C/c2ccc(Cl)cc2Cl)c1=O", "Potency": "inconclusive: 63.1 µM [inhibitor, single point]"}, {"smiles": "CC(C)NC(=O)/C(C#N)=C/c1ccc(N(C)C)o1", "Potency": "inconclusive: 44.7 µM [fluorescent, side channel, partial curve]"}]}]}
